From publication PMC7930485 come the findings set out here.

For this test, the target named is T1, γ-catenin (human (endogenous in HK-2)) (UniProt P14923).
T1 sequence: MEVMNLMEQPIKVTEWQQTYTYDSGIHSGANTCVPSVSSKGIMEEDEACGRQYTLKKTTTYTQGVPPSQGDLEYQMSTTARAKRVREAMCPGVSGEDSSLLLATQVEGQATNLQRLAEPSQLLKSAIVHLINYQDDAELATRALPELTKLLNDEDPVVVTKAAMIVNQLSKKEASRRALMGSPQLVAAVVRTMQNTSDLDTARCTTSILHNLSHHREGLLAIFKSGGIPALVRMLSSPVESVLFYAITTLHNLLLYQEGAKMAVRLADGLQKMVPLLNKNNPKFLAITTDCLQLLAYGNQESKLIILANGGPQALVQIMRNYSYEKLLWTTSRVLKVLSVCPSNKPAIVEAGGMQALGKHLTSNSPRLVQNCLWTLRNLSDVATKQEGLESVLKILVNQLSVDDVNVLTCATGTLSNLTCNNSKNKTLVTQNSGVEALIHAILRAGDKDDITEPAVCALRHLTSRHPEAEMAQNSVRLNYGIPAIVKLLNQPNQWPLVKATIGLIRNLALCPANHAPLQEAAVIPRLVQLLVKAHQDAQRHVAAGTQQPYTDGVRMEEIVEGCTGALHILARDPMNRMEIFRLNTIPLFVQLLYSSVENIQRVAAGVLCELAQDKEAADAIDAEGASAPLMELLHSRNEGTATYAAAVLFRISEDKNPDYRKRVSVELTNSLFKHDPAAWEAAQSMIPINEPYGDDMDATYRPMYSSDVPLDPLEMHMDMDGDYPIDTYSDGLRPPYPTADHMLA
Description: co-IP; anti-CD47 or anti-γ-catenin on Protein G Sepharose beads, HK-2 cell lysate (IP buffer with protease inhibitors), 4°C 12 h; gel electrophoresis and blot; cells with or without OX-LDL.

Results are given in words; binding and its absence hold for the method and conditions named. In cells and extracts the contact can be indirect. Binding can be weak; no strength is given.

With E-cadherin (human (endogenous in HK-2)), the binding entry is “binds”.
